Measured values reported in PubChem BioAssay AID540276 (National Center for Advancing Translational Sciences (NCATS), 2011).
Several values for one entry are separate records, joined by “and”; a condition that tells them apart may be missing. Equal entries are not always repeated. The whole screen tested about 300,000 compounds, of which about 5,400 (1.8%) were called active. Inconclusive results, whose numbers are uncertain, are shown with a selection of clear calls. Calls come from the whole dose curve; tested in HEK293 cells. Where the call is inconclusive, the potency comes from a doubtful curve fit.

Experiment: qHTS for inhibitors of binding or entry into cells for Marburg Virus
Details: Marburg virus pseudotyped entry inhibition, cell reporter; activity change, negative = inhibition: at 37.8 µM (top of the series) unless noted
% is set by controls: 0 for no effect and ±100 for the full control effect; potency is the fitted concentration of half-maximal effect.

| SMILES | activity change, negative = inhibition | Potency |
| --- | --- | --- |
| Brc1ccc2[nH]cc(/C=N/N3CCCCC3)c2c1 | inactive: 4.66% |  |
| Cc1cccc(CNC(=O)C2CCN(c3nnc(-n4c(C)ccc4C)s3)CC2)c1 | inactive: -6.21% [at 46.1 µM] |  |
| Cc1cccc(NC(=S)N(CCN2CCOCC2)Cc2ccccc2F)c1 | inactive: -10% [at 46.1 µM] |  |
| CN(C)CCCCOc1ccccc1-c1ccccc1 |  | active: 13 µM |
| CO/N=C/C(=N\Nc1ccccc1)C(=O)c1ccccc1 |  | inconclusive: 1.26 µM [inhibitor, partial curve, poor fit] |
| CCn1ccnc1CN1CCCC(C(=O)c2ccc3c4c(cccc24)CC3)C1 (stereo not given) |  | inconclusive: 31.6 µM [inhibitor, single point] |
| O=C(Cn1cnc2ccccc2c1=O)NCCC(=O)Nc1ccc2c(c1)OCO2 |  | inconclusive: 11.2 µM [inhibitor, single point] |
| COc1ccc(NC(=O)C/C(C)=N/NC(=O)c2cnccn2)c(OC)c1 | inactive: 13.1% [at 46.1 µM] |  |
| O=C(N/N=C/c1ccc(C(F)(F)F)cc1)c1ccc(O)cc1 |  | inconclusive: 3.55 µM [activator, single point] |
| COc1cc(CNC2CCCc3ccccc32)cc(OC)c1OC (stereo not given) |  | inconclusive: 11.2 µM [inhibitor, partial curve, poor fit] |
| Cc1ccc(S(=O)(=O)NC(CC(C)C)C(=O)NCc2ccco2)cc1 (stereo not given) | inactive: 9.12% |  |
| Cc1cc(C(=O)NC2CC(C)(C)Cc3c2cnn3-c2cccc(F)c2)n(C)n1 (stereo not given) |  | inconclusive: 1.41 µM [inhibitor, single point] |
| C=CCNCCOc1ccc(C(C)(C)c2ccccc2)cc1 |  | inconclusive: 22.4 µM [inhibitor, single point] |
| Cc1csc(NC(=O)CSc2ccccc2F)n1 |  | inconclusive: 1.58 µM [activator, partial curve, poor fit] |
| COc1ccccc1NC(=O)c1cc(-c2ccc(C)o2)nc2ccccc12 |  | inconclusive: 28.2 µM [inhibitor, single point] |
| CCN(c1ccc(NC(=O)CSc2nnc3nc(C)cc(C)n23)cc1)C(C)C |  | inconclusive: 31.6 µM [inhibitor, partial curve, poor fit] |
| CCOc1ccc2nc(N3CCCC(C(=O)NCCCN4C(C)CCCC4C)C3)sc2c1 (stereo not given) |  | inconclusive: 14.1 µM [inhibitor, single point] |
| CN(C)CCCn1c(=S)[nH]c2ccccc2c1=O |  | inconclusive: 35.5 µM [inhibitor, single point] |
| O=C(/C=C/c1ccc([N+](=O)[O-])cc1)N(c1ccccn1)C1CCCCC1 | inactive: 29.7% [at 46.1 µM] |  |
| CC(NC(=O)Cn1ncc(Cl)c(Cl)c1=O)C12CC3CC(CC(C3)C1)C2 (stereo not given) |  | inconclusive: 10.3 µM [inhibitor, partial curve, poor fit] |
| Cc1cc(C)nc(-n2nc(C)cc2NC(=O)CNCc2ccccc2)n1 |  | inconclusive: 5.62 µM [activator, single point] |
| O=C(NCCNc1cc(Cl)ccc1[N+](=O)[O-])c1ccco1 | inactive: 7.54% |  |
| CC(C)Cn1cnc2c(SCc3ccccc3Cl)nc(N)nc21 |  | inconclusive: 15.8 µM [inhibitor, single point] |
| O=C(O)C1CCCN1c1nc(-c2ccc(Cl)c(Cl)c2)cc(C(F)(F)F)n1 (stereo not given) |  | active: 0.501 µM |

| SMILES | activity change, negative = inhibition | Potency |
| --- | --- | --- |
| COc1ccc(Nc2nnc(Cc3ccc(Cl)cc3)c(=O)[nH]2)c(OC)c1 |  | inactive |
| CC1Oc2ccccc2N(CC(=O)NCc2cccs2)C1=O (stereo not given) | inactive: 6.13% |  |
| c1ccc(CNc2nc(CN3CCOCC3)nc3scc(-c4ccccc4)c23)cc1 |  | inconclusive: 18.4 µM [inhibitor, single point] |
| Clc1ccccc1CSc1nnc(-c2ccncc2)o1 |  | inconclusive: 8.2 µM [activator, partial curve] |
| O=C(CN1C2=NCCN2c2ccccc21)C12CC3CC(CC(C3)C1)C2 |  | inconclusive: 25.1 µM [inhibitor, single point] |
| CCCCC(c1nnnn1CC1CCCO1)N1CCN(c2cc(Cl)ccc2C)CC1 (stereo not given) |  | inconclusive: 8.91 µM [inhibitor, partial curve, poor fit] |
| CCc1nc2ccccc2c(C(=O)OCC(=O)Nc2cccc(S(=O)(=O)N3CCOCC3)c2)c1C |  | active: 4.61 µM |
| CCCc1nc(SCc2ccc(OCC)cc2)n[nH]1 |  | inconclusive: 6.31 µM [inhibitor, full curve, poor fit] |
| CCC(=O)Nc1ccc(S(=O)(=O)Nc2cccnc2)cc1 | inactive: 7.66% |  |
| CCN(CC)CCCC(C)NC(=O)c1cc(=O)c2ccccc2o1 (stereo not given) | inactive: -11% [at 46.1 µM] |  |
| Cn1c(=O)c2c(nc(NCc3ccco3)n2C)n(C)c1=O |  | inactive |
| C(=N\N1CCN(C2c3ccccc3-c3ccccc32)CC1)/c1ccccn1 |  | inconclusive: 25.1 µM [activator, single point] |
| CCCC(=O)Nc1ccc(Cl)c(-c2nc3ncccc3o2)c1 | inactive: 22.1% [at 46.1 µM] |  |
| C=C(C(=O)C(C)(C)O)C(O)c1ccc([N+](=O)[O-])cc1 (stereo not given) |  | inconclusive: 1.19 µM [activator, single point] |
| Cc1cc(C)cc(OC(=O)CS(=O)c2ccc(C(F)(F)F)cc2[N+](=O)[O-])c1 (stereo not given) |  | inconclusive: 28.2 µM [inhibitor, single point] |
| Cc1nc2c3cnn(-c4ccc(C)c(C)c4)c3ncn2n1 |  | inconclusive: 3.98 µM [activator, single point] |
| COc1ccc(C(=O)COC(=O)c2ccc3c(c2)NC(=O)CS3)c(OC)c1 |  | inconclusive: 2 µM [inhibitor, partial curve, poor fit] |
| CNCc1ccccc1Sc1cccc2ccccc12 |  | inconclusive: 10 µM [inhibitor, partial curve, poor fit] |
| NS(=O)(=O)c1cccc(NC(=O)c2ccc(NS(=O)(=O)c3cccc([N+](=O)[O-])c3)cc2)c1 | inactive: 19.8% |  |
| CCOc1ccc(C2=Nn3c(nnc3-c3ccccc3)SC2)cc1Cl |  | inconclusive: 0.562 µM [inhibitor, full curve, poor fit] |
| O=C(O)/C=C/C(=O)Nc1ccc(NC(=O)c2ccccc2)c(Cl)c1 |  | inconclusive: 35.5 µM [activator, partial curve, poor fit] |
| COCCN1C(=O)C(CC(=O)Nc2ccc(C(C)=O)cc2)SC1=Nc1ccccc1 (stereo not given) |  | inactive and inconclusive: 5.62 µM [activator, single point] |
| O=C(NCc1ccccn1)c1ccccc1Cl | inactive: 12.6% |  |
| COc1ccc(NC(=O)CCS(=O)(=O)c2cccc3nonc23)cc1Cl |  | inconclusive: 5.62 µM [inhibitor, single point] |

A few values from above:
Value of COc1ccc(Nc2nnc(Cc3ccc(Cl)cc3)c(=O)[nH]2)c(OC)c1 under Potency: inactive
Value of COc1ccc(NC(=O)CCS(=O)(=O)c2cccc3nonc23)cc1Cl under Potency: inconclusive: 5.62 µM [inhibitor, single point]

Gathered by group, those above with a COOH group

| SMILES | activity change, negative = inhibition | Potency |
| --- | --- | --- |
| O=C(O)C1CCCN1c1nc(-c2ccc(Cl)c(Cl)c2)cc(C(F)(F)F)n1 (stereo not given) |  | active: 0.501 µM |
| O=C(O)/C=C/C(=O)Nc1ccc(NC(=O)c2ccccc2)c(Cl)c1 |  | inconclusive: 35.5 µM [activator, partial curve, poor fit] |

More results

| SMILES | activity change, negative = inhibition | Potency |
| --- | --- | --- |
| O=C(COc1ccc(F)cc1)Nc1cc(S(=O)(=O)N2CCCCC2)ccc1N1CCCCC1 |  | inconclusive: 7.94 µM [inhibitor, partial curve, poor fit] |
| CC(=O)N1CCc2cc(N=NC3=C(O)CC(C)(C)CC3=O)ccc21 |  | inconclusive: 18.3 µM [inhibitor, single point] |
| CCOC(=O)C1=C(CS(=O)(=O)c2ccc(C)cc2)NC(=O)NC1c1ccc(C(C)C)cc1 (stereo not given) |  | inconclusive: 35.5 µM [inhibitor, single point] |
| Cc1ccc(C(=O)COC(=O)c2cc(=O)[nH]c3ccccc23)cc1 |  | inconclusive: 2.82 µM [inhibitor, single point] |
| O=C1CCC[C@@H](C(C(=O)OCc2ccccc2)C(=O)OCc2ccccc2)C1 |  | inconclusive: 0.0188 µM [activator, full curve] |
| CCOC(=O)C/C(=N\Nc1ncnc2ccccc12)c1ccccc1 |  | inconclusive: 8.91 µM [activator, partial curve] |
| COC(=O)CN1C(=O)C(O)(CC(=O)c2ccc(C)cc2)c2ccccc21 (stereo not given) | inactive: 35.3% |  |
| CCn1c(N2CCN(S(=O)(=O)c3ccc(F)cc3)CC2)nc2ccccc21 |  | inconclusive: 31.6 µM [inhibitor, single point] |
| CNc1cc([N+](=O)[O-])ccc1N/C=C/C(=O)c1ccc2c(c1)OCO2 | inactive: 6.51% |  |
| O=C(N/N=C/c1coc2ccccc2c1=O)c1ccccc1Br | inactive: 10.7% |  |
| CCOc1ccc(NC(=O)NCCCN2CCN(c3ccc(F)cc3)CC2)cc1 |  | inconclusive: 20 µM [inhibitor, single point] |
| CCOC(=O)C(c1ccccc1)C(Nc1ccc(Cl)c(Cl)c1)c1ccccn1 (stereo not given) |  | inconclusive: 5.62 µM [inhibitor, partial curve, poor fit] |
| OC(COc1ccccc1)CN1CCC(Cc2ccccc2)CC1 (stereo not given) |  | inconclusive: 7.08 µM [inhibitor, partial curve, poor fit] |
| O=C1C(Nc2ccc(O)cc2)=C/C(=N/S(=O)(=O)c2cccs2)c2ccccc21 |  | active: 2.51 µM |
| O=C(CN1C(=O)C2C3C=CC(C3)C2C1=O)Nc1nc(-c2ccccn2)cs1 (stereo not given) |  | inconclusive: 15.8 µM [inhibitor, partial curve, poor fit] |
| CCCCC(=O)Nc1cc([N+](=O)[O-])ccc1Cl |  | inconclusive: 35.5 µM [activator, single point] |
| CCOc1ccc(CCNC(=O)COC(=O)c2cccc(S(=O)(=O)N3CCCC3)c2)cc1OCC | inactive: -12.3% |  |
| CCn1nc(C)c(/C=N/NC(=O)c2ccoc2C)c1C | inactive: 17.2% [at 46.1 µM] |  |
| COc1ccc(/C=C(/C(=O)Nc2ccccc2C(=O)NC(C)C)c2ccccc2)cc1 |  | inconclusive: 3.26 µM [activator, single point] |
| O=C(c1cccs1)N1N=C(c2ccccc2)CC1c1ccccc1O (stereo not given) |  | inconclusive: 35.5 µM [inhibitor, single point] |
| COC(=O)c1cn(C(=O)c2ccc(C)c(C)c2)c2ccccc12 | inactive: 2.97% |  |
| COC(=O)c1cccc(Nc2nc(-c3ccncc3)nc3ccccc23)c1 |  | inconclusive: 2.82 µM [inhibitor, partial curve, poor fit] |
